pKi: −log10 of the molar value. Some results were stated once for a whole list of compounds, not compound by compound. At least one structure is not confirmed: it was looked up by name or label, or the drawing left a doubt.
The molecules below were run against DNA-PK (Homo sapiens, UniProt P78527) (assay: DNA-PK inhibition assay (radiometric 33P-ATP kinase assay)). Settings: 100 μM ATP; competitive tight-binding fit.
Format: biochemical
Experimental: Compounds were screened for their ability to inhibit DNA-PK kinase using a standard radiometric assay. Briefly, in this kinase assay the transfer of the terminal ^33P-phosphate in ^33P-ATP to a peptide substrate is interrogated. The assay was carried out in 384-well plates to a final volume of 50 μL per well containing approximately 6 nM DNA-PK, 50 mM HEPES (pH 7.5), 10 mM MgCl2, 25 mM NaCl, 0.01% BSA, 1 mM DTT, 10 μg/mL sheared double-stranded DNA (obtained from Sigma), 0.8 mg/mL DNA-PK peptide ([…] obtained from American Peptide), and 100 μM ATP. Accordingly, compounds of the invention were dissolved in DMSO to make 10 mM initial stock solutions. Serial dilutions in DMSO were then made to obtain the final solutions for the assay. A 0.75 μL aliquot of DMSO or inhibitor in DMSO was added to each well, followed by the addition of ATP substrate solution containing ^33P-ATP (obtained from Perkin Elmer). The reaction was started by the addition of DNA-PK, peptide and ds-DNA. After 45 min. the reaction was quenched with 25 μL of 5% phosphoric acid. The reaction mixture was transferred to MultiScreen HTS 384-well PH plates (obtained from Millipore), allowed to bind for one hour, and washed three times with 1% phosphoric acid. Following the addition of 50 μL of Ultima Gold™ high efficiency scintillant (obtained from Perkin Elmer), the samples were counted in a Packard TopCount NXT Microplate Scintillation and Luminescence Counter (Packard BioScience). The Ki values were calculated using Microsoft Excel Solver macros to fit the data to the kinetic model for competitive tight-binding inhibition.

The chains behind the UniProt entries cited, without tags or fusion partners.
UniProt P78527, whole entry: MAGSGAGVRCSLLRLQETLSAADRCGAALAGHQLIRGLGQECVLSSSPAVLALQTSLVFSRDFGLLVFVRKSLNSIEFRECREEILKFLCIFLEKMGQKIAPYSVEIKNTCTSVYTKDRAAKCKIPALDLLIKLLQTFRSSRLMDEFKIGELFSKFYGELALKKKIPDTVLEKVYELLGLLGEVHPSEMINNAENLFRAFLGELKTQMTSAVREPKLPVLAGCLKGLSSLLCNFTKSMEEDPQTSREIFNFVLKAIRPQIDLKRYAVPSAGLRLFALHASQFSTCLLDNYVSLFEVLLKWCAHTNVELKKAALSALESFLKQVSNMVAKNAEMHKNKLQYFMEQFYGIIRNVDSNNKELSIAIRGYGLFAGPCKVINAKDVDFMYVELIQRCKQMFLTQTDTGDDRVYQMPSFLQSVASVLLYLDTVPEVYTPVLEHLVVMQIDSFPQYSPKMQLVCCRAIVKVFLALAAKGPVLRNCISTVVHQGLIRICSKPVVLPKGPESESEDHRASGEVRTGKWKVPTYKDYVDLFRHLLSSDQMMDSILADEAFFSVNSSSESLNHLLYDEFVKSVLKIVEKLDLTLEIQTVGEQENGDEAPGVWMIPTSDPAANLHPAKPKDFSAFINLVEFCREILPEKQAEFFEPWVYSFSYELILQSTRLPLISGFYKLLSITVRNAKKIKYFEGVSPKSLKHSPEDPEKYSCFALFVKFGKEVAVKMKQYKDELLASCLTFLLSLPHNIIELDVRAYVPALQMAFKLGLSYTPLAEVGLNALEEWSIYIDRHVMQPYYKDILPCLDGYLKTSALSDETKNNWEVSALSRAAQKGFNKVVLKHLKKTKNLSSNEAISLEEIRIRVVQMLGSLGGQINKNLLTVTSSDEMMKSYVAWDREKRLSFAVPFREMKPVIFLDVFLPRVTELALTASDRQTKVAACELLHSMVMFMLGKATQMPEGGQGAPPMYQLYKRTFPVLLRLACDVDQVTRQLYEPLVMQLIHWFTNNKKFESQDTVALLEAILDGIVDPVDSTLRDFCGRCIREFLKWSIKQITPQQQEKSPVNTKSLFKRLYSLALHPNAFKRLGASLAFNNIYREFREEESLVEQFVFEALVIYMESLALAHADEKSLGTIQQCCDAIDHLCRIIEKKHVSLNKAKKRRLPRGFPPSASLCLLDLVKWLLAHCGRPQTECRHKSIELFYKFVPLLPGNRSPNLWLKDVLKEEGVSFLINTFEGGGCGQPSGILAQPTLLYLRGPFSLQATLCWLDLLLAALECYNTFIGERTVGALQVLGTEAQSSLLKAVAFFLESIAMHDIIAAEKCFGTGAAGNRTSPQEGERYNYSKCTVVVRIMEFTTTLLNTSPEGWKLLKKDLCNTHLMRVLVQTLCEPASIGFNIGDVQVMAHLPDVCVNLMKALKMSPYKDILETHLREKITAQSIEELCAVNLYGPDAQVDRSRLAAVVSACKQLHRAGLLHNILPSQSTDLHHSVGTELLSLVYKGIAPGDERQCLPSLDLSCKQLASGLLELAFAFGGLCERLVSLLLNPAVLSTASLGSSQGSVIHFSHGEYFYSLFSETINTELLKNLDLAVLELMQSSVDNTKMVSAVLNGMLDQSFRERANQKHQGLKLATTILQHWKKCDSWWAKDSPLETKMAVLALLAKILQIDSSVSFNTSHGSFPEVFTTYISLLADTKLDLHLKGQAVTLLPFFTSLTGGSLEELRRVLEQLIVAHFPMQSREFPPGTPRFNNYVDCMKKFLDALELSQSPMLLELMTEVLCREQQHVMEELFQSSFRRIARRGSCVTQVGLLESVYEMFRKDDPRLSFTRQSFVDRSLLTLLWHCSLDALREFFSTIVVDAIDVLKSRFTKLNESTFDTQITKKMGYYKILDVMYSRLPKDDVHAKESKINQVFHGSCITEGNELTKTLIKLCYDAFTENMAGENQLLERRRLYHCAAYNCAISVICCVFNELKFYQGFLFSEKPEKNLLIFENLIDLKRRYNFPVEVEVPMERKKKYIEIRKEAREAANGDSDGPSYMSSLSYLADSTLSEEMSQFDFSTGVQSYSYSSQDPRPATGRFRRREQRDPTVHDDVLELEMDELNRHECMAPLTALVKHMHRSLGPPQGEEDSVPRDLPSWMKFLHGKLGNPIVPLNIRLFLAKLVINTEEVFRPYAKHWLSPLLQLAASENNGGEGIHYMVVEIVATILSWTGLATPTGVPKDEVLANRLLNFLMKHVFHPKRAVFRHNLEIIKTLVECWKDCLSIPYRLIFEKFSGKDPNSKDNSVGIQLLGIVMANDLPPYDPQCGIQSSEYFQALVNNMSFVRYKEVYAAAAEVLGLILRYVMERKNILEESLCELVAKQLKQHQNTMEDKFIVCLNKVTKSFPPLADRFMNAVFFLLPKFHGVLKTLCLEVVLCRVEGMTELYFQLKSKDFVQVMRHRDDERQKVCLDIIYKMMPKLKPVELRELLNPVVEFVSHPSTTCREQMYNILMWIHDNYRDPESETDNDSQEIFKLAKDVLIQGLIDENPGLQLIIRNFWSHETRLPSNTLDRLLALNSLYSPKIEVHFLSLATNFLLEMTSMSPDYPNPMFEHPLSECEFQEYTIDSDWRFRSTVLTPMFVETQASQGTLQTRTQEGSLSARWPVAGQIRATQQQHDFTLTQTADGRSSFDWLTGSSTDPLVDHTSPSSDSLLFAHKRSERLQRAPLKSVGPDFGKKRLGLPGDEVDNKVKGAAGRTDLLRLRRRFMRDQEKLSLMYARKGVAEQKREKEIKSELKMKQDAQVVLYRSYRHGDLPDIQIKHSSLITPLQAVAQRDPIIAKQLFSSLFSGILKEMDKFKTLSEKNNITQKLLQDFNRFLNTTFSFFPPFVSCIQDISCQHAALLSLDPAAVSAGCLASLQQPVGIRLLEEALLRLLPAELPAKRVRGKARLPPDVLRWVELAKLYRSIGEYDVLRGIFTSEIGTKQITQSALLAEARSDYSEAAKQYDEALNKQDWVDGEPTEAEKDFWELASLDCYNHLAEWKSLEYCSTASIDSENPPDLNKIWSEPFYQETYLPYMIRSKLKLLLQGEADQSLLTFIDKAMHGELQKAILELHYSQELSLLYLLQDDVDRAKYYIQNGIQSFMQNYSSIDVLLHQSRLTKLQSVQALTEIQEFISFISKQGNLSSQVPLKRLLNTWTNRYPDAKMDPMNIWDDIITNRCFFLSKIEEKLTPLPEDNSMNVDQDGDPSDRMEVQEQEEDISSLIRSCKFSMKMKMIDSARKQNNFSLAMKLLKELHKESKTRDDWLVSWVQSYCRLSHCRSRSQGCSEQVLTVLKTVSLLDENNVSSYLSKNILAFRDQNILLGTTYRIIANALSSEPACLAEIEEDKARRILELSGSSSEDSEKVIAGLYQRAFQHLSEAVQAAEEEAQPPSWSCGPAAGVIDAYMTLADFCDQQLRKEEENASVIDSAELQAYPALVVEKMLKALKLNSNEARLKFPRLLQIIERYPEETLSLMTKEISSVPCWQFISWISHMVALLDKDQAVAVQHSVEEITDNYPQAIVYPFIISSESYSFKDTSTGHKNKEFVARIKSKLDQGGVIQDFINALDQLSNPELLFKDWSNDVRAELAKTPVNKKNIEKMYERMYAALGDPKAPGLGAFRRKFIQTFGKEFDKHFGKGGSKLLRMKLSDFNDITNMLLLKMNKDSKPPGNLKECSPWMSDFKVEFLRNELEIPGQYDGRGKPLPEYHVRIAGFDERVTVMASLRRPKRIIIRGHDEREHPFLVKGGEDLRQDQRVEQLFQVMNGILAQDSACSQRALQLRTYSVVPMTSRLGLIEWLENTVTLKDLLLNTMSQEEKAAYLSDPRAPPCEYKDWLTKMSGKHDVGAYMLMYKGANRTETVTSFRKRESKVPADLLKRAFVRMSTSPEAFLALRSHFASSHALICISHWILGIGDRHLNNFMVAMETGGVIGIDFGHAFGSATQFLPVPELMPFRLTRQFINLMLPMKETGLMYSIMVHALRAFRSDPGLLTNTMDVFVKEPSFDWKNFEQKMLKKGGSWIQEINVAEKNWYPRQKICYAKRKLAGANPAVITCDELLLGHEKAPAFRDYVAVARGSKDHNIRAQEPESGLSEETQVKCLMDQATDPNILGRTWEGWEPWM

pKi, ≥ 6.52:
CNC(=O)c1ccnc2c([C@H](C)CNc3cc(-c4cnc(COC)nc4)ncn3)ccc(F)c12 [Compound 1000]
CCc1ncc(-c2cc(NC[C@@H](C)c3ccc(F)c4c(C(=O)NC)ccnc34)ncn2)cn1 [Compound 830]
CNC(=O)c1ccc(C(C)CNc2cc(-c3ccc(CCO)cc3)ncn2)c(OC)c1 (centres unmarked) [Compound 339]
Cc1ccc(-c2cc(NCC(C)c3coc4cccnc34)ncn2)cn1 (centres unmarked) [Compound 292]
CN1CCN(c2ccc(-c3cc(NCCc4ccccc4OC4CC4)ncn3)cn2)CC1 [Compound 87]
CCOc1cc(F)ccc1[C@H](C)CNc1cc(-c2ccc(C)nc2)ncn1 [Compound 103]
Cc1cc([C@H](C)CNc2cc(-c3cnc4c(cnn4CCO)c3)ncn2)c2c(n1)CCO2 [Compound 505]
CCCNCCNc1ccc(-c2cc(NC[C@@H](C)c3cccc4c(C(=O)NC)ccnc34)ncn2)cn1 [Compound 705]
Cc1ncc(-c2cc(NC[C@@H](C)c3cccc4cc(F)cnc34)ncn2)cn1 [Compound 667]
Cc1ccc(-c2cc(NC[C@@H](C)c3cccc4c(C(=O)NCC(F)(F)F)ccnc34)ncn2)cn1 [Compound 546]
CNC(=O)c1ccc(C(C)CNc2cc(-c3cnc4c(cnn4CCN4CCCC4=O)c3)ncn2)c(OC)c1 (centres unmarked) [Compound 239]
CCNC(=O)c1ccnc2c([C@H](C)CNc3cc(-c4ccc(C)nc4)ncn3)cccc12 [Compound 545]
CNC(=O)c1c(F)cnc2c([C@H](C)CNc3cc(-c4cnn(C)c4)ncn3)cccc12 [Compound 783]
CNC(=O)c1ccc(-c2cc(NCCc3ccccc3OC)ncn2)cn1 [Compound 12]
Cc1ccc(-c2cc(NC[C@@H](C)c3cccc4c3ncc3[nH][nH]c(=O)c34)ncn2)cn1 [Compound 993]
CNC(=O)c1ccnc2c([C@H](C)CNc3cc(-c4ccc(OCC5CC5)nc4)ncn3)cccc12 [Compound 891]
CNC(=O)c1ccnc2c([C@H](C)CNc3cc(-c4cncc(-c5nnco5)c4)ncn3)cccc12 [Compound 960]
CNC(=O)c1ccnc2c([C@H](C)CNc3cc(-c4ccc(N5CCC(C)(O)C5)nc4)ncn3)cccc12 (some centres unmarked) [Compound 732]
Cc1ccc(-c2cc(NC[C@@H](C)c3cccc4c3ncc3c4c(=O)[nH]n3C)ncn2)cn1 [Compound 995]
CNC(=O)c1ccnc2c([C@H](C)CNc3cc(-c4cccnc4)ncn3)cccc12 [Compound 612]
COc1ccccc1[C@H](C)CNc1cc(-c2ccc(NCC3(O)CC3)nc2)ncn1 [Compound 204]
CN1CCN(c2ccc(-c3cc(NCCc4cccc5ccoc45)ncn3)cn2)CC1 [Compound 108]
CNC(=O)c1ccc([C@H](C)CNc2cc(-c3ccc4c(cnn4C4COC4)c3)ncn2)c(OC)c1 [Compound 243]
CNC(=O)c1ccc(-c2cc(NC[C@@H](C)c3cccc4c(C(=O)NC)ccnc34)ncn2)s1 [Compound 776]
CNC(=O)c1ccnc2c([C@H](C)CNc3cc(-c4ccnc(C(F)(F)F)c4)ncn3)cccc12 [Compound 812]
CNC(=O)c1ccnc2c([C@H](C)CNc3cc(-c4cnc(C)nc4)ncn3)ccc(F)c12 [Compound 622]
Cc1ccc(-c2cc(NC[C@@H](C)c3ccnc4nc(C)c(C)nc34)ncn2)cn1 [Compound 506]
CNC(=O)c1ccnc2c([C@H](C)CNc3cc(-c4cnc(CC5CCN(CC(F)(F)F)CC5)nc4)ncn3)cccc12 [Compound 1047]
CNC(=O)c1ccc([C@H](C)CNc2cc(-c3ccc4c(c3)OCC(=O)N4)ncn2)c(OC)c1 [Compound 314]
COc1cc(F)c(F)cc1[C@H](C)CNc1cc(-c2ccc(C)nc2)ncn1 [Compound 128]
COc1ccccc1[C@H](C)CNc1cc(-c2ccnc(NCC(O)CO)c2)ncn1 (single isomer, unassigned) [Compound 208]
CNC(=O)c1ccnc2c([C@H](C)CNc3cc(-c4ccc(C5CC5)nc4)ncn3)ccc(F)c12 [Compound 852]
COc1ccccc1CCNc1cc(-c2ccc(C)nc2)ncn1 [Compound 11]
CNC(=O)c1c(F)cnc2c([C@H](C)CNc3cc(-c4cnc(N(C)C5CCN(C(C)=O)CC5)nc4)ncn3)cccc12 [Compound 1059]
Cc1ccc(-c2cc(NCC(C)c3ccccc3OCCOC(C)(C)C)ncn2)cn1 (centres unmarked) [Compound 244]
CNC(=O)c1ccnc2c([C@H](C)CNc3cc(-c4cnc(OC)c(C)c4)ncn3)cccc12 [Compound 945]
COCCn1ccc2cc(-c3cc(NCCc4ccccc4OC)ncn3)cnc21 [Compound 38]
CNC(=O)c1ccnc2c([C@H](C)CNc3cc(-c4cnc(OC)c(CO)c4)ncn3)cccc12 [Compound 882]
Cc1ccc(-c2cc(NCCc3cccc4c3OCO4)ncn2)cn1 [Compound 56]
CNC(=O)c1ccc(C(C)CNc2cc(-c3cnc4c(cnn4CC(C)(C)O)c3)ncn2)c(OC)c1 (centres unmarked) [Compound 274]
C[C@H](CNc1cc(-c2cnc3c(cnn3CCO)c2)ncn1)c1ccnc2cccnc12 [Compound 472]
CNC(=O)c1ccnc2c([C@H](C)CNc3cc(-c4ccc(NCCn5cccc5)nc4)ncn3)cccc12 [Compound 702]
C[C@H](CNc1cc(-c2ccc(N3CCN(C)CC3)nc2)ncn1)c1cccc2c1OCC2 [Compound 132]
COCCn1ncc2cc(-c3cc(NCC(C)c4ccsc4OC)ncn3)cnc21 (centres unmarked) [Compound 258]
COc1cc(C(=O)NO)ccc1C(C)CNc1cc(-c2ccc(C)nc2)ncn1 (centres unmarked) [Compound 156]
COCCOc1ccccc1C(C)CNc1cc(-c2ccc(C)nc2)ncn1 (centres unmarked) [Compound 164]
CNC(=O)c1ccnc2c([C@H](C)CNc3cc(-c4ccc(C(=O)NCCCN(C)C)cc4)ncn3)cccc12 [Compound 751]
CNC(=O)c1ccnc2c([C@H](C)CNc3cc(-c4ccc(CC(C)C)nc4)ncn3)cccc12 [Compound 816]
CNC(=O)c1ccc([C@H](C)CNc2cc(-c3cnc4c(ccn4CCO)c3)ncn2)c(OC)c1 [Compound 269]
C=C(C)CNc1ccc(-c2cc(NC[C@@H](C)c3ccc(C(=O)NC)cc3OC)ncn2)cn1 [Compound 389]
CNC(=O)c1c(F)cnc2c([C@H](C)CNc3cc(-c4ccc(OC)nc4)ncn3)cccc12 [Compound 900]
Cc1ccc(-c2cc(NC[C@@H](C)c3cccc4ccc(N)nc34)ncn2)cn1 [Compound 566]
CNC(=O)c1ccnc2c([C@H](C)CNc3cc(-c4ccc5c(c4)CCN(C(=O)COC)C5)ncn3)cccc12 [Compound 835]
CC(CNc1cc(-c2cnc3c(cnn3C3CCN(C)CC3)c2)ncn1)c1cccc2cccnc12 (centres unmarked) [Compound 237]
COc1cc(C#N)ncc1C(C)CNc1cc(-c2ccc(C)nc2)ncn1 (centres unmarked) [Compound 336]
Cc1ccc(-c2cc(NCC(C)c3cccc4c3OCC(=O)N4)ncn2)cn1 (centres unmarked) [Compound 435]
CNC(=O)c1c(F)cnc2c([C@H](C)CNc3cc(-c4cnc(OC5CCN(C)CC5)nc4)ncn3)cccc12 [Compound 1050]
CCOc1cc(-c2cc(NC[C@@H](C)c3cccc4c(C(=O)NC)ccnc34)ncn2)cnc1OCC [Compound 887]
COc1ccsc1C(C)CNc1cc(-c2ccc(C)nc2)ncn1 (centres unmarked) [Compound 231]
COc1cc(-c2cc(NC[C@@H](C)c3ccnc4c3OCCO4)ncn2)cnc1OC [Compound 518]
Cc1ccc(-c2cc(NC[C@@H](C)c3cccc4c(C(=O)NC(C)CCl)ccnc34)ncn2)cn1 (some centres unmarked) [Compound 696]
CNC(=O)c1c(F)cnc2c([C@H](C)CNc3cc(-c4cnc(C)nc4)ncn3)ccc(F)c12 [Compound 645]
COc1ccsc1C(C)CNc1cc(-c2cnc3c(cnn3CCO)c2)ncn1 (centres unmarked) [Compound 233]
Cc1ccc(-c2cc(NC[C@@H](C)c3c[nH]c(=O)c4ccoc34)ncn2)cn1 [Compound 601]
CNC(=O)c1ccnc2c([C@H](C)CNc3cc(-c4cnc(CO)c(OC)c4)ncn3)cccc12 [Compound 821]

Same assay, conditions: 100 μM ATP; competitive tight-binding fit; listed as compound 510

pKi, ≥ 6.52:
CC(O)Cn1ncc2cc(-c3cc(NC[C@@H](C)c4ccnc5c4OCCO5)ncn3)cnc21 (single isomer, unassigned) [Compound 510]

Same assay, conditions: 100 μM ATP; competitive tight-binding fit; listed as compound 576

pKi, ≥ 6.52:
Cc1ccc(-c2cc(NC[C@@H](C)c3ccnc4c3OCC4C)ncn2)cn1 (single isomer, unassigned) [Compound 576]

Same assay, conditions: 100 μM ATP; competitive tight-binding fit; listed as compound 1012

pKi, ≥ 6.52:
CNC(=O)c1ccnc2c([C@H](C)CNc3cc(-c4cnc5c(c4)C(C)OC5)ncn3)cccc12 (single isomer, unassigned) [Compound 1012]
